We go through three molecules from PMC9065613.

Chains of the proteins cited; added tags and fusions are not shown. Lines headed by an entry give the natural chain unless they say otherwise; changes in a name come on top.
UniProt Q09427: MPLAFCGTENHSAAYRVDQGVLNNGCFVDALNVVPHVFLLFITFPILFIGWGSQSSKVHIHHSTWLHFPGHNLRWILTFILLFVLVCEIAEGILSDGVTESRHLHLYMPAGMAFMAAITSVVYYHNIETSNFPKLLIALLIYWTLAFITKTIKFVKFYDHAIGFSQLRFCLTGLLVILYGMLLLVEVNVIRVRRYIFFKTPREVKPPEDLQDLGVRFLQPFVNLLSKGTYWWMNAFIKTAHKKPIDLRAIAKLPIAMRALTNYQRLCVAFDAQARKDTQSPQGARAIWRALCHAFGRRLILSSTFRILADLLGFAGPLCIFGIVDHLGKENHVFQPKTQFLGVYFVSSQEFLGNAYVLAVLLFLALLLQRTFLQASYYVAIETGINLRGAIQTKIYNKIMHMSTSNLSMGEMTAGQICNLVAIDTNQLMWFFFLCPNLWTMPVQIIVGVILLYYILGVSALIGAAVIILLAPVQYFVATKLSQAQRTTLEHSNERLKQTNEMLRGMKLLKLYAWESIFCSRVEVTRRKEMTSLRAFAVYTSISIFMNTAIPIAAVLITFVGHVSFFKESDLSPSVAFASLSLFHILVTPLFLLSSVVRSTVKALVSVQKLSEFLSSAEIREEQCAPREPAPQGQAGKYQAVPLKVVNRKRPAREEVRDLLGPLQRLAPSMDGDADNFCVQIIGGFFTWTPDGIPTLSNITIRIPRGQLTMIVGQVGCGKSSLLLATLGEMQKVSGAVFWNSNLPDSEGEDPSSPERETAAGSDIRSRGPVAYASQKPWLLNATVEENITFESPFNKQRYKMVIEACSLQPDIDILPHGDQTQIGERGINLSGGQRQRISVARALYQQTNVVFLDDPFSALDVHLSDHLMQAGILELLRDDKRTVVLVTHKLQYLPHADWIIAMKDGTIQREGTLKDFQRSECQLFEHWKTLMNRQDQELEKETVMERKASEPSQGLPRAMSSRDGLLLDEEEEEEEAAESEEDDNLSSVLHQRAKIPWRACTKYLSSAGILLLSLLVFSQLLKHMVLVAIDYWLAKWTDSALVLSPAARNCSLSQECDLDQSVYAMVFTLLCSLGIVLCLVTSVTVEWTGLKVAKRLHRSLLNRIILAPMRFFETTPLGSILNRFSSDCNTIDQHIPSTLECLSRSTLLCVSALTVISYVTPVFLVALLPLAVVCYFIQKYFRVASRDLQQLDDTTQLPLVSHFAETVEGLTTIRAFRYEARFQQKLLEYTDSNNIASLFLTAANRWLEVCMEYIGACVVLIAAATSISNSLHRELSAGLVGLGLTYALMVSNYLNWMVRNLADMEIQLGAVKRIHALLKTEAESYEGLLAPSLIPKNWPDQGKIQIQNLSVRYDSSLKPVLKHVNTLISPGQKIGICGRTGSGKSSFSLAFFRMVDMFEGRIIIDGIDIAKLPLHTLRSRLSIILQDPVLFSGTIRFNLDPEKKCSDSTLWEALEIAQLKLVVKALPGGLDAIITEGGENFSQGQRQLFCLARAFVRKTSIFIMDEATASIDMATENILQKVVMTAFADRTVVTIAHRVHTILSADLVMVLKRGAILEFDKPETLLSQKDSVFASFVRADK
UniProt Q14654: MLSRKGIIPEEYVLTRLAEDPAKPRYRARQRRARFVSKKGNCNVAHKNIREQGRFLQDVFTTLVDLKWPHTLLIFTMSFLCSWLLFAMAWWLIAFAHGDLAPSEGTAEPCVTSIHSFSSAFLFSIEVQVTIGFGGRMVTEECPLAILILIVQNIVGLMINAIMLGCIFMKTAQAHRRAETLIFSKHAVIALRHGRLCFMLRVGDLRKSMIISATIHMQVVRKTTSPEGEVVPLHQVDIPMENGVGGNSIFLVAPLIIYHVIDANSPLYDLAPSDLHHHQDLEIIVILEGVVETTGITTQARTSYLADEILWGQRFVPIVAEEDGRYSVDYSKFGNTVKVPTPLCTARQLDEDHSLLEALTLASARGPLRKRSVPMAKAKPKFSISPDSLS

Assay [1] concerns the target T1, GM130, cis-Golgi matrix protein (rat (endogenous in INS-1)) (UniProt Q62839).
T1 sequence: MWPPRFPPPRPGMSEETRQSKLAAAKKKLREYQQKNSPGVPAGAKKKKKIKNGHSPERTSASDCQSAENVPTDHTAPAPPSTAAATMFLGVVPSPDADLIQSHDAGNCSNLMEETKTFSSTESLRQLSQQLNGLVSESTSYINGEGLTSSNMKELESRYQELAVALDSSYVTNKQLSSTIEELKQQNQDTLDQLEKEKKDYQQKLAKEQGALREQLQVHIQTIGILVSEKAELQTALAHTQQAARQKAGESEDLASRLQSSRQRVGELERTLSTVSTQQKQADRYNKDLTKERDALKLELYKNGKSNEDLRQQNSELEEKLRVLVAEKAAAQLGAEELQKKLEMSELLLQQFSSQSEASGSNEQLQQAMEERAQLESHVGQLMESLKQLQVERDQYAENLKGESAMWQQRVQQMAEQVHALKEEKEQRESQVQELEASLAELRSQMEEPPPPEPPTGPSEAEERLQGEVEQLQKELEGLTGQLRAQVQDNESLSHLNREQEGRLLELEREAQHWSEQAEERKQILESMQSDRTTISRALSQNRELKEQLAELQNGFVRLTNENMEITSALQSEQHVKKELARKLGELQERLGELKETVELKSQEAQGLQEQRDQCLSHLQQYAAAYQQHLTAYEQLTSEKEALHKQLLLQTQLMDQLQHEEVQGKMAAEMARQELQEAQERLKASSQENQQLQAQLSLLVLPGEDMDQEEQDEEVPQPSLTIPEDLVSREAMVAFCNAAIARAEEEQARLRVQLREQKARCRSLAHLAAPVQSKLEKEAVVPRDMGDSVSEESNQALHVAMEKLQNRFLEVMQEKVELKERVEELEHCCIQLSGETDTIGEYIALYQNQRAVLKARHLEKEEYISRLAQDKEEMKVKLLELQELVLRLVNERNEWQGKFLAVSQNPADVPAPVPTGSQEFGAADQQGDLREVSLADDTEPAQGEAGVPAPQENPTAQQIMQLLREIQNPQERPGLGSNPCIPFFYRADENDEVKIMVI
In words: co-IP; lysates of transfected cells precipitated with GM130 antibody on agarose/protein A-Sepharose beads (2 ug antibody, 4 h, 4 °C), blotted with HA and GM130 antibodies; cells treated with DMSO, 10 uM or 100 uM carbamazepine for 16 h (Carb dose-dependently reduced the co-precipitate).

The target in assay [2] is T1, GM130, cis-Golgi matrix protein (rat (endogenous in INS-1)). In words: proximity ligation; Duolink PLA in INS-1 cells with anti-Kir6.2 and anti-GM130 primary antibodies, confocal microscopy, DAPI counterstain.
Assay [3] addresses mutant KATP channel (HA-SUR1/Kir6.2-A28V) (rodent | human) (UniProt Q09427+Q14654). The assay is described as follows: co-IP; lysates of transfected cells precipitated with HA antibody on agarose/protein A-Sepharose beads (2 ug antibody, 4 h, 4 °C), blotted with HA and GM130 antibodies; cells treated with DMSO, 10 uM or 100 uM carbamazepine for 16 h (Carb dose-dependently reduced the co-precipitate).

These are yes or no findings as the source states them, for the method shown. In cells and extracts the contact can be indirect. Some entries that bind do so weakly or less than the wild type.

For the molecule “mutant KATP channel (HA-SUR1/Kir6.2-A28V) (from UniProt Q09427 1-1582; Q14654 1-390) (complex)”, the binding entry in assay [1] is listed as “binds”.

B1: endogenous Kir6.2 of INS-1 cells (protein, UniProt P70673 1-390)
chain: MLSRKGIIPEEYVLTRLAEDPTEPRYRTRERRARFVSKKGNCNVAHKNIREQGRFLQDVFTTLVDLKWPHTLLIFTMSFLCSWLLFAMVWWLIAFAHGDLAPGEGTNVPCVTSIHSFSSAFLFSIEVQVTIGFGGRMVTEECPLAILILIVQNIVGLMINAIMLGCIFMKTAQAHRRAETLIFSKHAVITLRHGRLCFMLRVGDLRKSMIISATIHMQVVRKTTSPEGEVVPLHQVDIPMENGVGGNSIFLVAPLIIYHVIDSNSPLYDLAPSDLHHHQDLEIIVILEGVVETTGITTQARTSYLADEILWGQRFVPIVAEEDGRYSVDYSKFGNTVKVPTPLCTARQLDEDRSLLDALTLASSRGPLRKRSVAVAKAKPKFSISPDSLS
For the molecule B1, the binding entry in assay [2] is recorded as “binds”.

B2: GM130, cis-Golgi matrix protein (protein, UniProt Q62839 1-998)
chain: T1 sequence
As to B2, in assay [3], the binding entry is “binds”.
